Source: paper doi:10.1101/2021.05.25.445547
Where two headings read alike, the source gives them in different places. No constants are given. Whether binding was seen depends on the method and setting. Some entries that bind do so weakly or less than the wild type. For some assays here: Where a sequence is shown, tags or fusion partners need not be part of it.

The chains behind the UniProt entries cited, without tags or fusion partners.
UniProt P62993, whole entry: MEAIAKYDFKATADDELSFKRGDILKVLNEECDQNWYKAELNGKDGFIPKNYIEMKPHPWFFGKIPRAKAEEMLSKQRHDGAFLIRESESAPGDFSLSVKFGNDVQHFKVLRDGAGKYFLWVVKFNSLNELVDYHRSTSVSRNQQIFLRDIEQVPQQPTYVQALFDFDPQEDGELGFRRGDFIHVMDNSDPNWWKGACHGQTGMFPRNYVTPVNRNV

B1: Grb2-associated-binding protein 1 (Gab1), GFP-fused (protein, UniProt Q13480 1-694)
chain: MSGGEVVCSGWLRKSPPEKKLKRYAWKRRWFVLRSGRLTGDPDVLEYYKNDHAKKPIRIIDLNLCQQVDAGLTFNKKEFENSYIFDINTIDRIFYLVADSEEEMNKWVRCICDICGFNPTEEDPVKPPGSSLQAPADLPLAINTAPPSTQADSSSATLPPPYQLINVPPHLETLGIQEDPQDYLLLINCQSKKPEPTRTHADSAKSTSSETDCNDNVPSHKNPASSQSKHGMNGFFQQQMIYDSPPSRAPSASVDSSLYNLPRSYSHDVLPKVSPSSTEADGELYVFNTPSGTSSVETQMRHVSISYDIPPTPGNTYQIPRTFPEGTLGQTSKLDTIPDIPPPRPPKPHPAHDRSPVETCSIPRTASDTDSSYCIPTAGMSPSRSNTISTVDLNKLRKDASSQDCYDIPRAFPSDRSSSLEGFHNHFKVKNVLTVGSVSSEELDENYVPMNPNSPPRQHSSSFTEPIQEANYVPMTPGTFDFSSFGMQVPPPAHMGFRSSPKTPPRRPVPVADCEPPPVDRNLKPDRKVKPAPLEIKPLPEWEELQAPVRSPITRSFARDSSRFPMSPRPDSVHSTTSSSDSHDSEENYVPMNPNLSSEDPNLFGSNSLDGGSSPMIKPKGDKQVEYLDLDLDSGKSTPPRKQKSSGSGSSVADERVDYVVVDQQKTLALKSTREAWTDGRQSTESETPAKSVK

Assays:
[1] = target: optimized bait-PAR-Grb2 with inserted flexible linker sequences, RFP-fused (UniProt P62993); assay: subcellular micropatterning
[2] = target: optimized bait-PAR-Grb2 with inserted flexible linker sequences, RFP-fused (UniProt P62993); assay: subcellular micropatterning; remark: listed apart in the source

binding [1]	binding [2]	Molecule
no binding	–	MEK1 (mitogen-activated protein kinase kinase 1), GFP-fused (from UniProt Q02750 1-393)
–	binds	B1
